Reference: publication PMC4055699
Results are given in words; binding and its absence hold for the method and conditions named. In cells and extracts the contact can be indirect. Here binding means that the protein was enriched with, or labelled near, the bait; the list need not be complete.

Sequences of proteins named here, by UniProt entry; tags and fusion partners are left off. Residues count along the entry.
UniProt O96028, residues 782-1365: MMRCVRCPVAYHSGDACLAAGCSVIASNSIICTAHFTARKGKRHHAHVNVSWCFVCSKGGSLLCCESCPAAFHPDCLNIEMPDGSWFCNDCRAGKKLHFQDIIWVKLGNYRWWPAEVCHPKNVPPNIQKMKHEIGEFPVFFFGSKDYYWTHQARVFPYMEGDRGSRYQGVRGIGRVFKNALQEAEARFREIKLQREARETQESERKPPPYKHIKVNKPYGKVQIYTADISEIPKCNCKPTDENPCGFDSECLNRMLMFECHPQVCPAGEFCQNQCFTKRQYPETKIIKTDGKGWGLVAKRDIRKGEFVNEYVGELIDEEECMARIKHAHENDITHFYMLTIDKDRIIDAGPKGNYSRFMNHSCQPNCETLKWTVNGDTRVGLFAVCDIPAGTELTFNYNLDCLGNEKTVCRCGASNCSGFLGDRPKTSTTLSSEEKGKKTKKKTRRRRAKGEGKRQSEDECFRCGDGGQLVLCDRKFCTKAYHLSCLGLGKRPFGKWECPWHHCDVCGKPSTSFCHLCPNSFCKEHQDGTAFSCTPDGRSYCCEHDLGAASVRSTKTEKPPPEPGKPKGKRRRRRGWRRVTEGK
UniProt O14893: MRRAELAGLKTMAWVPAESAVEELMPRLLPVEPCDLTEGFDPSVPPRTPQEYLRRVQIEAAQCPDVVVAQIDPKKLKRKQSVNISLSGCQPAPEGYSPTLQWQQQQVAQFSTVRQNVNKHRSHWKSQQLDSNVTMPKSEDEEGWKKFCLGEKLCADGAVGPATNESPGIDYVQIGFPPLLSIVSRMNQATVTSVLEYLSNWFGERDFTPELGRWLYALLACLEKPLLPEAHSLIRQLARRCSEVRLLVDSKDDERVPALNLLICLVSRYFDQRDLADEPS
UniProt Q8WXD5: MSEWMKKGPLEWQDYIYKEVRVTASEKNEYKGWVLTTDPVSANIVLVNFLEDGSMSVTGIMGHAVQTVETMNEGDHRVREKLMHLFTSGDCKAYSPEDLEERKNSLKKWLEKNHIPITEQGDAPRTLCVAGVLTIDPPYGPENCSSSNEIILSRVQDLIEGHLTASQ
UniProt Q9H840: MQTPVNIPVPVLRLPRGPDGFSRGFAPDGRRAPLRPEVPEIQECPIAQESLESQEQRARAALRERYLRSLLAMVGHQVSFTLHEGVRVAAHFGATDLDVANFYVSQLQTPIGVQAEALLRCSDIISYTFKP
UniProt Q8TEQ6: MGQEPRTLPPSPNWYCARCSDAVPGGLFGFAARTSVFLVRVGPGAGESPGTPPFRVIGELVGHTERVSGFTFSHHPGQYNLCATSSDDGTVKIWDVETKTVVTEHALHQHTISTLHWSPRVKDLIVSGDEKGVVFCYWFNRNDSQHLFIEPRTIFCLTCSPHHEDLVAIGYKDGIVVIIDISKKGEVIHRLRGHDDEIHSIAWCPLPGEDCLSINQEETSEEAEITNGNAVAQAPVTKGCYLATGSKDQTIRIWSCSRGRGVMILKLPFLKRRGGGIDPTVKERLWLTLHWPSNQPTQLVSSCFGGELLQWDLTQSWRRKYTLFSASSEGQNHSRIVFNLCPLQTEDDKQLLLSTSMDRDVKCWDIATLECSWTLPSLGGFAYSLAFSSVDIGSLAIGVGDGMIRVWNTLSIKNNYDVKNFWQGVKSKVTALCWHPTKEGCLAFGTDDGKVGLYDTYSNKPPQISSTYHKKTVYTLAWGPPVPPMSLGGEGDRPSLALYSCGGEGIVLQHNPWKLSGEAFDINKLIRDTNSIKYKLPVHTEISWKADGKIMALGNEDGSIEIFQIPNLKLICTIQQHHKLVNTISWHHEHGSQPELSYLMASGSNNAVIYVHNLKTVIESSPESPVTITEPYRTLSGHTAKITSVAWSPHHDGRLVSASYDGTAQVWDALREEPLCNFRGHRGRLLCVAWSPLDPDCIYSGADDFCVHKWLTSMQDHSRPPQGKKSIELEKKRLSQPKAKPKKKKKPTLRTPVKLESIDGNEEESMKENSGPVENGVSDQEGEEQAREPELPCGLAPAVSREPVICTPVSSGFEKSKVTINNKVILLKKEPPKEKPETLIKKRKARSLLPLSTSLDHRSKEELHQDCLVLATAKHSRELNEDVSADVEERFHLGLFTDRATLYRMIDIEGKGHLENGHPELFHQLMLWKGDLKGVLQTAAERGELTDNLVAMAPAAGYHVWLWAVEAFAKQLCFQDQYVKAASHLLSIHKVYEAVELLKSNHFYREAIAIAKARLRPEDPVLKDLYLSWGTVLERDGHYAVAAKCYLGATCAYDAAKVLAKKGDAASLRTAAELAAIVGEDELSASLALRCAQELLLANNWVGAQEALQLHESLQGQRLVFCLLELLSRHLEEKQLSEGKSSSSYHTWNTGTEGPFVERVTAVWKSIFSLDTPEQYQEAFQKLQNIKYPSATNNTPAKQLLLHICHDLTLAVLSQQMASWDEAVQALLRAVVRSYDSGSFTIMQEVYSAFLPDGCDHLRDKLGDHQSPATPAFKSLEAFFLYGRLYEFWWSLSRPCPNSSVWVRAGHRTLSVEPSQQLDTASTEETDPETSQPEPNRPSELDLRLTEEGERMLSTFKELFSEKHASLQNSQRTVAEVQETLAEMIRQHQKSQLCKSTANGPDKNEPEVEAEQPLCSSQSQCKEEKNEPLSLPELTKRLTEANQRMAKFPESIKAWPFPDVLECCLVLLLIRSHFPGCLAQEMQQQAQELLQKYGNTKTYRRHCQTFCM
UniProt P52732: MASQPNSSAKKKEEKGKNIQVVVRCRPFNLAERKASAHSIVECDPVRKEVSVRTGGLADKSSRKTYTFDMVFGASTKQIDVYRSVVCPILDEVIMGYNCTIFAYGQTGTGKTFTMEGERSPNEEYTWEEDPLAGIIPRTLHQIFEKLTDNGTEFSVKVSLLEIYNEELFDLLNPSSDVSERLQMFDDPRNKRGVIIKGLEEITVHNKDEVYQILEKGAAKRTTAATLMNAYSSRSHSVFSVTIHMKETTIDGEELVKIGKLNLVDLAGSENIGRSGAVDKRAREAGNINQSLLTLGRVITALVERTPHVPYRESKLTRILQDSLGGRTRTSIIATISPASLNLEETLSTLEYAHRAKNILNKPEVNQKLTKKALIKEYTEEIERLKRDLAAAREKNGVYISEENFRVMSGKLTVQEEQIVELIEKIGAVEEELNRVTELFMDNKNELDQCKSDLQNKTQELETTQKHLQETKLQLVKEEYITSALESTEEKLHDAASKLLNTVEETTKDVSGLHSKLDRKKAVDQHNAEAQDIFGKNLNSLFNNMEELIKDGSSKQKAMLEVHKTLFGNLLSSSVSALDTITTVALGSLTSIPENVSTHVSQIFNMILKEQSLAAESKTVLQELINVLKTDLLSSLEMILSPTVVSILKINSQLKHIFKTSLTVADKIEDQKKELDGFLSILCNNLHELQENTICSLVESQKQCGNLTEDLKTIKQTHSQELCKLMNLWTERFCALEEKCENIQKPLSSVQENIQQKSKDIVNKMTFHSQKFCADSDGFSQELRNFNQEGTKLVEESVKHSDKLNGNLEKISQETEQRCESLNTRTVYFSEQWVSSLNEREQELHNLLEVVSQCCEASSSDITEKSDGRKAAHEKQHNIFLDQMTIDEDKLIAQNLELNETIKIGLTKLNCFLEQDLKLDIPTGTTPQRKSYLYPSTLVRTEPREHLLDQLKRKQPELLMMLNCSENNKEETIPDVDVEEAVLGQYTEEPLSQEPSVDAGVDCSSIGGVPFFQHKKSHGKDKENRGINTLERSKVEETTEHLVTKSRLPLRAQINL
UniProt Q9BQA1: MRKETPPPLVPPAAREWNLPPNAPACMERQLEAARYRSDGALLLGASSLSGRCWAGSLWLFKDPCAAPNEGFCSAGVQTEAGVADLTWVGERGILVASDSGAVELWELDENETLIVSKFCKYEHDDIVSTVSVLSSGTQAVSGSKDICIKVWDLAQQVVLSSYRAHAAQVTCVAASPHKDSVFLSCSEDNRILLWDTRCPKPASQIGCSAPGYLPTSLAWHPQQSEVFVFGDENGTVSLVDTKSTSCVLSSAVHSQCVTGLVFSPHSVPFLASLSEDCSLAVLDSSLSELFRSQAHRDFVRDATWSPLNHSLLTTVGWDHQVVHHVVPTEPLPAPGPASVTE
UniProt P98175: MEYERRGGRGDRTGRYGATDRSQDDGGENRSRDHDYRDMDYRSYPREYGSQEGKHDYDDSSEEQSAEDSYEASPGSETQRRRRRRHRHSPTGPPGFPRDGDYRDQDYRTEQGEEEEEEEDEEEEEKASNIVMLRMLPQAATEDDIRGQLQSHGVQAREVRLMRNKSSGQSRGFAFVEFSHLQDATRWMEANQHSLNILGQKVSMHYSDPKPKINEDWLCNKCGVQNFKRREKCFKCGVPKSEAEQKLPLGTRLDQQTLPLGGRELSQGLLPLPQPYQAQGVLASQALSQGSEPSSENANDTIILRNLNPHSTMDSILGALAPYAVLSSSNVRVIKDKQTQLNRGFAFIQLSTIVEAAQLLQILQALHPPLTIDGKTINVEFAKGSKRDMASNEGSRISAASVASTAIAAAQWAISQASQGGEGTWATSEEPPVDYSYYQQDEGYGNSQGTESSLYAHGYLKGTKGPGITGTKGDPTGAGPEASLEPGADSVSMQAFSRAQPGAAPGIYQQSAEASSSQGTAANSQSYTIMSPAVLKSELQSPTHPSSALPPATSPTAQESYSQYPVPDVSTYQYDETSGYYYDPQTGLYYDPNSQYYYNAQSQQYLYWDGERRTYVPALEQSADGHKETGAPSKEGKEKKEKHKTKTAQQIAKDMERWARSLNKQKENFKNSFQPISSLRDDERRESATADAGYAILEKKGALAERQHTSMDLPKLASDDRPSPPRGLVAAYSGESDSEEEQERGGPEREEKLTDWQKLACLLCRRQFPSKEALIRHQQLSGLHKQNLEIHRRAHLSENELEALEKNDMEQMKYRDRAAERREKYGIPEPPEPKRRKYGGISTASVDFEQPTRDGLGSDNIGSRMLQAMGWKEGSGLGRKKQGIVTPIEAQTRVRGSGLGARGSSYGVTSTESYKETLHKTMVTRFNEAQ
UniProt Q15393: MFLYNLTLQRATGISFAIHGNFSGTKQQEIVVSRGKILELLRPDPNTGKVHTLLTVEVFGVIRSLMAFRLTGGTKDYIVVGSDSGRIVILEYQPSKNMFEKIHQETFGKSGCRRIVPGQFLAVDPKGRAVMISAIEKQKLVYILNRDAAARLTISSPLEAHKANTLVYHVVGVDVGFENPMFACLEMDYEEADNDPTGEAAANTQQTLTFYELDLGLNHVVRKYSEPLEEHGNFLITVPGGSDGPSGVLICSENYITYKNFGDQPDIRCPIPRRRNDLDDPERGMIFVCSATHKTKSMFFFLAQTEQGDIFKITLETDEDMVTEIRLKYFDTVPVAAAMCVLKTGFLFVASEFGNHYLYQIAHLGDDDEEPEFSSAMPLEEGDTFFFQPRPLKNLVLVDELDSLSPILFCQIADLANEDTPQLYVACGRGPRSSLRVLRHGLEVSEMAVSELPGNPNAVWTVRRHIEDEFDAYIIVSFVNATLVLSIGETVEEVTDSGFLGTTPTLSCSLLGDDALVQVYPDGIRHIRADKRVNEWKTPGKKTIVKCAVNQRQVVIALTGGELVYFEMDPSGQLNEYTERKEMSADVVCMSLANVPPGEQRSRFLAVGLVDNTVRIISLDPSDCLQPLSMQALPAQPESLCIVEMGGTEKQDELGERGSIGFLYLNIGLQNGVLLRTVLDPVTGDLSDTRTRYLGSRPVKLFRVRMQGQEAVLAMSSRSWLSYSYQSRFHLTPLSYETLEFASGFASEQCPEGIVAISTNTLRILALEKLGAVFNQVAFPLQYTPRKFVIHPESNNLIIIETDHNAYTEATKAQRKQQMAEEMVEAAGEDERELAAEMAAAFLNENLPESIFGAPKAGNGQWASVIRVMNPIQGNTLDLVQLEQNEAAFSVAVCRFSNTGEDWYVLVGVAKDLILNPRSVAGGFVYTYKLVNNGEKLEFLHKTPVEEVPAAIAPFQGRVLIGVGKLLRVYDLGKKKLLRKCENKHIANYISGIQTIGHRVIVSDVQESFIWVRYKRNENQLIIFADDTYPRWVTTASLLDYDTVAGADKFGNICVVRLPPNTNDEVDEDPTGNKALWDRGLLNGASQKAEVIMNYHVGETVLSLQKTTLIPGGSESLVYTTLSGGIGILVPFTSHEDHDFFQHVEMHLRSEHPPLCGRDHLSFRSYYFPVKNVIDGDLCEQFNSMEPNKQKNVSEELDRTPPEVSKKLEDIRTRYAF
UniProt Q16637: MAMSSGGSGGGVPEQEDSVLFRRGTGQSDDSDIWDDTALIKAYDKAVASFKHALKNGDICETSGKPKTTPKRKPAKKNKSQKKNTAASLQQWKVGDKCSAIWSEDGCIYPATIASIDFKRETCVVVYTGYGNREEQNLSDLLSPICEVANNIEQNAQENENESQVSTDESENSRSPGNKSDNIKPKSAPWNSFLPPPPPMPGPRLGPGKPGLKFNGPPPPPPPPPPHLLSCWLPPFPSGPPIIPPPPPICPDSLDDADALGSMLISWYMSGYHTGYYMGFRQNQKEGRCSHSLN

Target: REIIBP Flag HIS construct (UniProt O96028)
Assay: affinity purification with mass spectrometry; tandem affinity purification from H929::REIIBP lysate (untouched H929 as control): M2 anti-FLAG resin, 4°C, 1 hour, washes with 300 mM NaCl, elution with 3×FLAG peptide, then NiNTA agarose, elution with 250 mM imidazole; SDS-PAGE gel sections, LC-MS/MS; at least 10 fold enrichment in spectral counts for Table 1

Molecule	binding
Component of gems 4 (from UniProt P57678 1-1058)	binds
GEMIN2 (from UniProt O14893 1-280)	binds
GEMIN6 (from UniProt Q8WXD5 1-167)	binds
GEMIN7 (from UniProt Q9H840 1-131)	binds
Gem-associated protein 5 (from UniProt Q8TEQ6 1-1508)	binds
Kinesin-like protein KIF11 (from UniProt P52732 1-1056)	binds
Methylosome protein 50 (from UniProt Q9BQA1 1-342)	binds
Microtubule-associated protein 1B (from UniProt P46821 1-2468)	binds
Probable ATP-dependent RNA helicase DDX20 (from UniProt Q9UHI6 1-824)	binds
Probable E3 ubiquitin-protein ligase MYCBP2 (from UniProt O75592 1-4678)	binds
Protein Daple (from UniProt Q9P219 1-2028)	binds
RNA-binding protein 10 (from UniProt P98175 1-930)	binds
SF3B3 (from UniProt Q15393 1-1217)	binds
Survival motor neuron protein (from UniProt Q16637 1-294)	binds
Tyrosine-protein phosphatase non-receptor type 13 (from UniProt Q12923 1-2485)	binds
U2SURP (from UniProt O15042 1-1029)	binds
Phosphoribosyl pyrophosphate synthase-associated protein 2 (protein, UniProt O60256 1-369) MFCVTPPELETKMNITKGGLVLFSANSNSSCMELSKKIAERLGVEMGKVQVYQEPNRETRVQIQESVRGKDVFIIQTVSKDVNTTIMELLIMVYACKTSCAKSIIGVIPYFPYSKQCKMRKRGSIVSKLLASMMCKAGLTHLITMDLHQKEIQGFFNIPVDNLRASPFLLQYIQEEIPDYRNAVIVAKSPASAKRAQSFAERLRLGIAVIHGEAQDAESDLVDGRHSPPMVRSVAAIHPSLEIPMLIPKEKPPITVVGDVGGRIAIIVDDIIDDVDSFLAAAETLKERGAYKIFVMATHGLLSSDAPRRIEESAIDEVVVTNTIPHEVQKLQCPKIKTVDISMILSEAIRRIHNGESMSYLFRNIGLDD	binds
Thyroid hormone receptor-associated protein 3 (protein, UniProt Q9Y2W1 1-955) MSKTNKSKSGSRSSRSRSASRSRSRSFSKSRSRSRSLSRSRKRRLSSRSRSRSYSPAHNRERNHPRVYQNRDFRGHNRGYRRPYYFRGRNRGFYPWGQYNRGGYGNYRSNWQNYRQAYSPRRGRSRSRSPKRRSPSPRSRSHSRNSDKSSSDRSRRSSSSRSSSNHSRVESSKRKSAKEKKSSSKDSRPSQAAGDNQGDEAKEQTFSGGTSQDTKASESSKPWPDATYGTGSASRASAVSELSPRERSPALKSPLQSVVVRRRSPRPSPVPKPSPPLSSTSQMGSTLPSGAGYQSGTHQGQFDHGSGSLSPSKKSPVGKSPPSTGSTYGSSQKEESAASGGAAYTKRYLEEQKTENGKDKEQKQTNTDKEKIKEKGSFSDTGLGDGKMKSDSFAPKTDSEKPFRGSQSPKRYKLRDDFEKKMADFHKEEMDDQDKDKAKGRKESEFDDEPKFMSKVIGANKNQEEEKSGKWEGLVYAPPGKEKQRKTEELEEESFPERSKKEDRGKRSEGGHRGFVPEKNFRVTAYKAVQEKSSSPPPRKTSESRDKLGAKGDFPTGKSSFSITREAQVNVRMDSFDEDLARPSGLLAQERKLCRDLVHSNKKEQEFRSIFQHIQSAQSQRSPSELFAQHIVTIVHHVKEHHFGSSGMTLHERFTKYLKRGTEQEAAKNKKSPEIHRRIDISPSTFRKHGLAHDEMKSPREPGYKAEGKYKDDPVDLRLDIERRKKHKERDLKRGKSRESVDSRDSSHSRERSAEKTEKTHKGSKKQKKHRRARDRSRSSSSSSQSSHSYKAEEYTEETEEREESTTGFDKSRLGTKDFVGPSERGGGRARGTFQFRARGRGWGRGNYSGNNNNNSNNDFQKRNREEEWDPEYTPKSKKYYLHDDREGEGSDKWVSRGRGRGAFPRGRGRFMFRKSSTSPKWAHDKFSGEEGEIEDDESGTENREEKDNIQPTTE	binds
GEMIN8 (protein, UniProt Q9NWZ8 1-242) MAAVKASTSKATRPWYSHPVYARYWQHYHQAMAWMQSHHNAYRKAVESCFNLPWYLPSALLPQSSYDNEAAYPQSFYDHHVAWQDYPCSSSHFRRSGQHPRYSSRIQASTKEDQALSKEEEMETESDAEVECDLSNMEITEELRQYFAETERHREERRRQQQLDAERLDSYVNADHDLYCNTRRSVEAPTERPGERRQAEMKRLYGDSAAKIQAMEAAVQLSFDKHCDRKQPKYWPVIPLKF	binds
Golgin subfamily A member 3 (protein, UniProt Q08378 1-1498) MDGASAEQDGLQEDRSHSGPSSLPEAPLKPPGPLVPPDQQDKVQCAEVNRASTEGESPDGPGQGGLCQNGPTPPFPDPPSSLDPTTSPVGPDASPGVAGFHDNLRKSQGTSAEGSVRKEALQSLRLSLPMQETQLCSTDSPLPLEKEEQVRLQARKWLEEQLKQYRVKRQQERSSQPATKTRLFSTLDPELMLNPENLPRASTLAMTKEYSFLRTSVPRGPKVGSLGLPAHPREKKTSKSSKIRSLADYRTEDSNAGNSGGNVPAPDSTKGSLKQNRSSAASVVSEISLSPDTDDRLENTSLAGDSVSEVDGNDSDSSSYSSASTRGTYGILSKTVGTQDTPYMVNGQEIPADTLGQFPSIKDVLQAAAAEHQDQGQEVNGEVRSRRDSICSSVSLESSAAETQEEMLQVLKEKMRLEGQLEALSLEASQALKEKAELQAQLAALSTKLQAQVECSHSSQQRQDSLSSEVDTLKQSCWDLERAMTDLQNMLEAKNASLASSNNDLQVAEEQYQRLMAKVEDMQRSMLSKDNTVHDLRQQMTALQSQLQQVQLERTTLTSKLKASQAEISSLQSVRQWYQQQLALAQEARVRLQGEMAHIQVGQMTQAGLLEHLKLENVSLSQQLTETQHRSMKEKGRIAAQLQGIEADMLDQEAAFMQIQEAKTMVEEDLQRRLEEFEGERERLQRMADSAASLEQQLEQVKLTLLQRDQQLEALQQEHLDLMKQLTLTQEALQSREQSLDALQTHYDELQARLGELQGEAASREDTICLLQNEKIILEAALQAAKSGKEELDRGARRLEEGTEETSETLEKLREELAIKSGQVEHLQQETAALKKQMQKIKEQFLQQKVMVEAYRRDATSKDQLISELKATRKRLDSELKELRQELMQVHGEKRTAEAELSRLHREVAQVRQHMADLEGHLQSAQKERDEMETHLQSLQFDKEQMVAVTEANEALKKQIEELQQEARKAITEQKQKMRRLGSDLTSAQKEMKTKHKAYENAVGILSRRLQEALAAKEAADAELGQLRAQGGSSDSSLALHERIQALEAELQAVSHSKTLLEKELQEVIALTSQELEESREKVLELEDELQESRGFRKKIKRLEESNKKLALELEHEKGKLTGLGQSNAALREHNSILETALAKREADLVQLNLQVQAVLQRKEEEDRQMKHLVQALQASLEKEKEKVNSLKEQVAAAKVEAGHNRRHFKAASLELSEVKKELQAKEHLVQKLQAEADDLQIREGKHSQEIAQFQAELAEARAQLQLLQKQLDEQLSKQPVGNQEMENLKWEVDQKEREIQSLKQQLDLTEQQGRKELEGLQQLLQNVKSELEMAQEDLSMTQKDKFMLQAKVSELKNNMKTLLQQNQQLKLDLRRGAAKTRKEPKGEASSSNPATPIKIPDCPVPASLLEELLRPPPAVSKEPLKNLNSCLQQLKQEMDSLQRQMEEHALTVHESLSSWTPLEPATASPVPPGGHAGPRGDPQRHSQSRASKEGPGE	binds
Myb-binding protein 1A (protein, UniProt Q9BQG0 1-1328) MESRDPAQPMSPGEATQSGARPADRYGLLKHSREFLDFFWDIAKPEQETRLAATEKLLEYLRGRPKGSEMKYALKRLITGLGVGRETARPCYSLALAQLLQSFEDLPLCSILQQIQEKYDLHQVKKAMLRPALFANLFGVLALFQSGRLVKDQEALMKSVKLLQALAQYQNHLQEQPRKALVDILSEVSKATLQEILPEVLKADLNIILSSPEQLELFLLAQQKVPSKLKKLVGSVNLFSDENVPRLVNVLKMAASSVKKDRKLPAIALDLLRLALKEDKFPRFWKEVVEQGLLKMQFWPASYLCFRLLGAALPLLTKEQLHLVMQGDVIRHYGEHVCTAKLPKQFKFAPEMDDYVGTFLEGCQDDPERQLAVLVAFSSVTNQGLPVTPTFWRVVRFLSPPALQGYVAWLRAMFLQPDLDSLVDFSTNNQKKAQDSSLHMPERAVFRLRKWIIFRLVSIVDSLHLEMEEALTEQVARFCLFHSFFVTKKPTSQIPETKHPFSFPLENQAREAVSSAFFSLLQTLSTQFKQAPGQTQGGQPWTYHLVQFADLLLNHSHNVTTVTPFTAQQRQAWDRMLQTLKELEAHSAEARAAAFQHLLLLVGIHLLKSPAESCDLLGDIQTCIRKSLGEKPRRSRTKTIDPQEPPWVEVLVEILLALLAQPSHLMRQVARSVFGHICSHLTPRALQLILDVLNPETSEDENDRVVVTDDSDERRLKGAEDKSEEGEDNRSSESEEESEGEESEEEERDGDVDQGFREQLMTVLQAGKALGGEDSENEEELGDEAMMALDQSLASLFAEQKLRIQARRDEKNKLQKEKALRRDFQIRVLDLVEVLVTKQPENALVLELLEPLLSIIRRSLRSSSSKQEQDLLHKTARIFTHHLCRARRYCHDLGERAGALHAQVERLVQQAGRQPDSPTALYHFNASLYLLRVLKGNTAEGCVHETQEKQKAGTDPSHMPTGPQAASCLDLNLVTRVYSTALSSFLTKRNSPLTVPMFLSLFSRHPVLCQSLLPILVQHITGPVRPRHQACLLLQKTLSMREVRSCFEDPEWKQLMGQVLAKVTENLRVLGEAQTKAQHQQALSSLELLNVLFRTCKHEKLTLDLTVLLGVLQGQQQSLQQGAHSTGSSRLHDLYWQAMKTLGVQRPKLEKKDAKEIPSATQSPISKKRKKKGFLPETKKRKKRKSEDGTPAEDGTPAATGGSQPPSMGRKKRNRTKAKVPAQANGTPTTKSPAPGAPTRSPSTPAKSPKLQKKNQKPSQVNGAPGSPTEPAGQKQHQKALPKKGVLGKSPLSALARKKARLSLVIRSPSLLQSGAKKKAQVRKAGKP	binds
